Test results from the supplement of paper PMC10849652.
The other results are listed elsewhere or left out.

By UniProt entry, the sequences of proteins in these tests, tags left out. Where a name states a change or a piece, a line headed by the entry shows the natural chain unless it says otherwise.
UniProt Q7Z4H3: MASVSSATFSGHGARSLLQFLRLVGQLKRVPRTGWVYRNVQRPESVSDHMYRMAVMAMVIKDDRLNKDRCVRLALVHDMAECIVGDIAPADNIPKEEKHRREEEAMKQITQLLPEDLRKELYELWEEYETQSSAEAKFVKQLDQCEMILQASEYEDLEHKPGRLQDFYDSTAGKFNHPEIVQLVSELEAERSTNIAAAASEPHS
UniProt P00390: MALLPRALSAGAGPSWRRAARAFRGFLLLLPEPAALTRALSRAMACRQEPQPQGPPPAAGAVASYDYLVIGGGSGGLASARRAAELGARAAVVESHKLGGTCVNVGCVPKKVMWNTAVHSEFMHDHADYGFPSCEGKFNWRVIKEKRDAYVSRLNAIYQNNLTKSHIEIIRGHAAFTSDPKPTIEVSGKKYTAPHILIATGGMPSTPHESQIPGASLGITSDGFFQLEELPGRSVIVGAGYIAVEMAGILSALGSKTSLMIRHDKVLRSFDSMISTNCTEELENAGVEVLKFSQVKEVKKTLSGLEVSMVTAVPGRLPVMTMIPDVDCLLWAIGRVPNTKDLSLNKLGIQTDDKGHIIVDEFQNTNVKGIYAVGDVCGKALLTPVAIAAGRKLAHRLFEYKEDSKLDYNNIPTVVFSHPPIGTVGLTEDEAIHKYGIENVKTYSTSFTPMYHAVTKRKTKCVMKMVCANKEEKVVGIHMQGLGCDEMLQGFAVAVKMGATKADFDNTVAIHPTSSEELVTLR
UniProt Q9P0R6: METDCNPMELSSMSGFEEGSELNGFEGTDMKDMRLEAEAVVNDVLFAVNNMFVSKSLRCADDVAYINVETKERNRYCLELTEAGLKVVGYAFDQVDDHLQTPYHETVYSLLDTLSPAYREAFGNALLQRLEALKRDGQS
UniProt Q12789: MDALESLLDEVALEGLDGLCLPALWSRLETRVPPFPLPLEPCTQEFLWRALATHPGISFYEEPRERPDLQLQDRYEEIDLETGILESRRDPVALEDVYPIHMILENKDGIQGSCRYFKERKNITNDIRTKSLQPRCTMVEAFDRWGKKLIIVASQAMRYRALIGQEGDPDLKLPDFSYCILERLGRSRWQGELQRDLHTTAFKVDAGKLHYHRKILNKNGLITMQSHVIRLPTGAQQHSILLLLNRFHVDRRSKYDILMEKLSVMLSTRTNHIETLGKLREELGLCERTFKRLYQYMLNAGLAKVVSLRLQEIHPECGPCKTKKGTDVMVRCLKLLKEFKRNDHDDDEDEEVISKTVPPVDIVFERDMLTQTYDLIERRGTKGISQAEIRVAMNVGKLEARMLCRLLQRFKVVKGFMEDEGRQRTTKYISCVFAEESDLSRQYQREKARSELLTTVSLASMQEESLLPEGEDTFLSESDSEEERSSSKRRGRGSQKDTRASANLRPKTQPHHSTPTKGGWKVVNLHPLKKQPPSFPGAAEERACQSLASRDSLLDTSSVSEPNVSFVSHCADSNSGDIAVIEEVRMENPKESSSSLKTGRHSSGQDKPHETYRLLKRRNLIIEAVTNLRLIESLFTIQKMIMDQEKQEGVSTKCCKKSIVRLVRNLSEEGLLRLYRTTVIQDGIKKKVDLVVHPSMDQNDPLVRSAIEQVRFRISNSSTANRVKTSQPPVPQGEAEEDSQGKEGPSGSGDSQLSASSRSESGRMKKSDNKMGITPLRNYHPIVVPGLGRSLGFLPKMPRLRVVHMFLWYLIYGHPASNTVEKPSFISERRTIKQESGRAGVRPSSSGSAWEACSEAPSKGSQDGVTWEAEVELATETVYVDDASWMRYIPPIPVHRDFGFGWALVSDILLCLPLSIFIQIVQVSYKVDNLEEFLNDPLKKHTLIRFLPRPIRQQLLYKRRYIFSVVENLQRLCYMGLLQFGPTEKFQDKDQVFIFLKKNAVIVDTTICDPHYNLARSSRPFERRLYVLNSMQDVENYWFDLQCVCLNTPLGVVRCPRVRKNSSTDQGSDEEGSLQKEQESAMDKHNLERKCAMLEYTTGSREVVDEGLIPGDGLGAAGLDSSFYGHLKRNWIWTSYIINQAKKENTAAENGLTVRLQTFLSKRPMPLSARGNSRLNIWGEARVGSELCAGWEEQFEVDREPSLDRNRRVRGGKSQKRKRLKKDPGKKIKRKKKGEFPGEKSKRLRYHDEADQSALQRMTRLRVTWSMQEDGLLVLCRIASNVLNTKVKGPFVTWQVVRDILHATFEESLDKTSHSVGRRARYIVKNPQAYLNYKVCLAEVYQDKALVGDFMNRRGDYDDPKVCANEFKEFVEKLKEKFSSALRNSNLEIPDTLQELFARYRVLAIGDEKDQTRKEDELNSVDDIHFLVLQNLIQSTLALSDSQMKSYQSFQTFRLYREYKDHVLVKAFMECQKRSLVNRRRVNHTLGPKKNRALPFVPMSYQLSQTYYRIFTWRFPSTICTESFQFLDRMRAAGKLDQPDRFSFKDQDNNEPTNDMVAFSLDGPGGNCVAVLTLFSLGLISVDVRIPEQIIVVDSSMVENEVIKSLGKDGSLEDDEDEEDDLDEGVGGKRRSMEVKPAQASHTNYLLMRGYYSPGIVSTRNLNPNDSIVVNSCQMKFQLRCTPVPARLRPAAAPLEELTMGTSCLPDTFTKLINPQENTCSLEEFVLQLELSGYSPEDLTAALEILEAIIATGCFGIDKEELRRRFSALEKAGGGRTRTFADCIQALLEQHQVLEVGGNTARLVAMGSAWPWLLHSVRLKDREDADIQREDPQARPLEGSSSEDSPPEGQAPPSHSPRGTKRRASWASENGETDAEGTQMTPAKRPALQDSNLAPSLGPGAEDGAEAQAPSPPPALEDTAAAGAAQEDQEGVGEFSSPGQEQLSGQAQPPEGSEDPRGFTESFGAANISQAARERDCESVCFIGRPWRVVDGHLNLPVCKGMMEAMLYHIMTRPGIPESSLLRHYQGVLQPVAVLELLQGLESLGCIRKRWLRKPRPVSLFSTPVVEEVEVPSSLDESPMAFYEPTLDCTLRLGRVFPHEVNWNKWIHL
UniProt Q8TAA5: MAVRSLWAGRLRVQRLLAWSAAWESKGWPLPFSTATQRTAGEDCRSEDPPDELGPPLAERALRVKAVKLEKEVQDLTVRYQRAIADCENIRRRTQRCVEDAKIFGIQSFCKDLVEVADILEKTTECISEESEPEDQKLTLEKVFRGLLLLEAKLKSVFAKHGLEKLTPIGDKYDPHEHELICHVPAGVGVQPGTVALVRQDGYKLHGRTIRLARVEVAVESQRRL
UniProt Q7Z4H7: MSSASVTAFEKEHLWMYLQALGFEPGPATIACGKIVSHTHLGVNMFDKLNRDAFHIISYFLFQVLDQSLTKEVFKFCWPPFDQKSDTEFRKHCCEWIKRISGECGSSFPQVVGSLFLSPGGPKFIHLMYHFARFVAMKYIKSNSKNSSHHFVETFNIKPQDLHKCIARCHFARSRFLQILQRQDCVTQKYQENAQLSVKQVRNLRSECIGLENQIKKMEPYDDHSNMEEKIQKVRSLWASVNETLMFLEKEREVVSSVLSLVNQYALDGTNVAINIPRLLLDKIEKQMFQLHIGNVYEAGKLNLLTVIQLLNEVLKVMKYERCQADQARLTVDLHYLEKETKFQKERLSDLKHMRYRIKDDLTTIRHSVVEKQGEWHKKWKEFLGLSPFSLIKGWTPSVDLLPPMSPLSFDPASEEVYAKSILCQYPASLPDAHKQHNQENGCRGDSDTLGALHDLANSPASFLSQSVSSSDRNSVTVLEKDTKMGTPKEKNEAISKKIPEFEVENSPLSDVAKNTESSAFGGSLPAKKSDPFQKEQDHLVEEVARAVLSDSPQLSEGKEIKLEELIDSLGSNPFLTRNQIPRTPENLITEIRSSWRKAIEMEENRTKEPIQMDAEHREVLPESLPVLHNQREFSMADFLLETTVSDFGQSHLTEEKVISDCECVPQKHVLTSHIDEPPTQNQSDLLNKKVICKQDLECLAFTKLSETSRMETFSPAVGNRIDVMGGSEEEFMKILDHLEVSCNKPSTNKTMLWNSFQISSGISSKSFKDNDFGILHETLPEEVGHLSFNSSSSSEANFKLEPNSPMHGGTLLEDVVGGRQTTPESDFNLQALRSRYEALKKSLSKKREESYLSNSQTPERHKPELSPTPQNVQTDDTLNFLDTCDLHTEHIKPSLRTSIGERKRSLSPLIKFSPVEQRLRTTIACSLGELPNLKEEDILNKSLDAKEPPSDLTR
UniProt O75367, whole entry, looked up: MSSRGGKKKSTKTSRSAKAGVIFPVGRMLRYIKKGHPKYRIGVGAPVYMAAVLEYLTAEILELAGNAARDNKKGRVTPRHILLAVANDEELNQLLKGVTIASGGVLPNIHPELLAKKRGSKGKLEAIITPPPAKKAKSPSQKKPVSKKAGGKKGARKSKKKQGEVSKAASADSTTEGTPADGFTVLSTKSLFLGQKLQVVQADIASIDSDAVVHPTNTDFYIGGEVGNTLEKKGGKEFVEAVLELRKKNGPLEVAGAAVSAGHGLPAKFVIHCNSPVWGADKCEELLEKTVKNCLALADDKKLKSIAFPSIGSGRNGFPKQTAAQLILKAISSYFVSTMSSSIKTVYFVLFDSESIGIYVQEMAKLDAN
UniProt Q9P2D3: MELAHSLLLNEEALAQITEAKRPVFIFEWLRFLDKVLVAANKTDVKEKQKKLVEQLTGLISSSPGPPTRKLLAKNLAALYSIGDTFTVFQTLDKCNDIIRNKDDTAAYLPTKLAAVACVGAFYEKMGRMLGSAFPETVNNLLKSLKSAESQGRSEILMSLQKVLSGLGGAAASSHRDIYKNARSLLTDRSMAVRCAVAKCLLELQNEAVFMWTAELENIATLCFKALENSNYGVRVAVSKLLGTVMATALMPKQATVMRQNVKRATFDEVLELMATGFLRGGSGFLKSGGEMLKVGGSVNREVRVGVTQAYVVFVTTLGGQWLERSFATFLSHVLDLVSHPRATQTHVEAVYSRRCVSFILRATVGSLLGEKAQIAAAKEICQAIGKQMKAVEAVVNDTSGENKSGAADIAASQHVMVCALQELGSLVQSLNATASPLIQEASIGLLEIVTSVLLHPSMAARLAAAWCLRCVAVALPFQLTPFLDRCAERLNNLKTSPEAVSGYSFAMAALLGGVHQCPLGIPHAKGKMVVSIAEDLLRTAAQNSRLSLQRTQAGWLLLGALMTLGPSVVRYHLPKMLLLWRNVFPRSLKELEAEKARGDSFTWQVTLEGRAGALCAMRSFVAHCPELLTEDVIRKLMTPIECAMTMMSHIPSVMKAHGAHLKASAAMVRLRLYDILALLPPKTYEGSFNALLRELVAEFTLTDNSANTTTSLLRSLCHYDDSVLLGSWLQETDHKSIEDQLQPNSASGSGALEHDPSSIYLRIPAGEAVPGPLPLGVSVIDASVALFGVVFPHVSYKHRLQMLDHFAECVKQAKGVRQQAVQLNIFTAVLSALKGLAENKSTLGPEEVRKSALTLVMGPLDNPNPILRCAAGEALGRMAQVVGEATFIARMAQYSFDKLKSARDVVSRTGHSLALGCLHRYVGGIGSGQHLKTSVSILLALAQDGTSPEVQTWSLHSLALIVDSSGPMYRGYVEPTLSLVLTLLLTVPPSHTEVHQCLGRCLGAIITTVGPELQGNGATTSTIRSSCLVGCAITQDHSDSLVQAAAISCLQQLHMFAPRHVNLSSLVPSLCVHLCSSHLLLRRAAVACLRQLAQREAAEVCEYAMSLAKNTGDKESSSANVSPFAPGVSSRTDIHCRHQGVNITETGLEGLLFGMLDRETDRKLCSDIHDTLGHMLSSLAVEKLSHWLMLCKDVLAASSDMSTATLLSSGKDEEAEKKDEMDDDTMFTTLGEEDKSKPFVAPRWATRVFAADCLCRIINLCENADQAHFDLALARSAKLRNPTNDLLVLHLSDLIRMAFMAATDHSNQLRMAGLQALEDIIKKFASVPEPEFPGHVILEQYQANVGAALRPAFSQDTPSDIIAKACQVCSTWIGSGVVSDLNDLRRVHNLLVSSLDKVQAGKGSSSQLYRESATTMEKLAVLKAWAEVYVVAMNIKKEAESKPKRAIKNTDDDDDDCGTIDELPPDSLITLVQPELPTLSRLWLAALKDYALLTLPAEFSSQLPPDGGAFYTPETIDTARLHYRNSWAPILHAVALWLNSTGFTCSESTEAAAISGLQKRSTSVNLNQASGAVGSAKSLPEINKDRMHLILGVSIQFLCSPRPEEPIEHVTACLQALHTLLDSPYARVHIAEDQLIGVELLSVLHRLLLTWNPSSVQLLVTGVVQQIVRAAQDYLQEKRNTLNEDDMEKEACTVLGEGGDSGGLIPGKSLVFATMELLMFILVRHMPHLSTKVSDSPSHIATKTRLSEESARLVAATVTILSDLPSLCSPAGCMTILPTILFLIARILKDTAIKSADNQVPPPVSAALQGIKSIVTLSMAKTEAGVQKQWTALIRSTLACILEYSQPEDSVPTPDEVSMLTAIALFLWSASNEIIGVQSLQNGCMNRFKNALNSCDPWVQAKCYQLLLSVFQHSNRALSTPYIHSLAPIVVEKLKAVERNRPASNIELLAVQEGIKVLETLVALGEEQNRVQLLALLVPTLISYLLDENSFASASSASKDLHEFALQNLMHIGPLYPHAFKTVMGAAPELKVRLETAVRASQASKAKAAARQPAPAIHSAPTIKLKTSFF

Experiments:
Assay in all cases: log2 fold change, soluble protein after heating vs DMSO (PISA); higher = thermal stabilisation; K562 lysate, 10 uM; active = over 0.2 and 3.5 SD of the protein, either way, in both replicates (recomputed)
ibrutinib = compound: C=CC(=O)N1CCC[C@@H](n2nc(-c3ccc(Oc4ccccc4)cc3)c3c(N)ncnc32)C1 [ibrutinib]
Summary of the method: (§1)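 Dounce homogenisation of K562 pellets in PBS pH 7.4 with 1 mM MgCl2 produced a crude extract, used at 1 mg/mL protein. Exposure to 10 μM compound lasted 30 min, and aliquots were then heated for 3 min across 48°C-58°C, pooled and brought to 0.5% NP-40 at 4°C. The supernatant after 21,000xg for 90 min was quantified by TMTpro 16plex LC-MS/MS with channel sums equalised. Duplicate values are given as log-two fold change in thermal stability relative to solvent controls.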

[1] = compound: CC(=O)c1cnc2ccc(-c3cc(Cl)c(O)c(Cl)c3)nc2c1N[C@H]1CC[C@H](CN(C)C)CC1
Summary of the method: as §1

ralimetinib = compound: CC(C)(C)Cn1c(N)nc2ccc(-c3[nH]c(C(C)(C)C)nc3-c3ccc(F)cc3)nc21 [ralimetinib]
Summary of the method: as §1

[2] = compound: CC(C)(O)CC(=O)NCCn1ccc2ncnc(Nc3ccc(Oc4cccc(C(F)(F)F)c4)c(Cl)c3)c21
Summary of the method: as §1

[3] = compound: CC(C)C1=C2N=C(C=C(N2N=C1)NCC3=CC=CC=C3)NCCCCCCN
Summary of the method: as §1

[4] = compound: CC1=C(C(CC(=O)N1)C2=CC=C(C=C2)C(F)(F)F)C(=O)NC3=C(C=C4C(=C3)C=NN4)F
Summary of the method: as §1

[5] = compound: CC1=C(C2=C(C=C1)C(=O)C3=CC=CC=C3N2CCCN)C
Summary of the method: as §1

[6] = compound: CC1=C(C=C(C=C1)NC(=O)C2=CC(=CC=C2)C(C)(C)C#N)NC3=CC4=C(C=C3)N=CN(C4=O)C
Summary of the method: as §1

[7] = compound: CC1=C(C=C(C=C1)NC(=O)C2=CC(=CC=C2)N(C)C)NC(=O)C3=CC=C(C=C3)O
Summary of the method: as §1

[8] = compound: CC1=CC=C(C=C1)SC2=C3C=C(SC3=CN=C2)C(=O)N
Summary of the method: as §1

vemurafenib = compound: CCCS(=O)(=O)Nc1ccc(F)c(C(=O)c2c[nH]c3ncc(-c4ccc(Cl)cc4)cc23)c1F [vemurafenib]
Summary of the method: as §1

[9] = compound: CCCS(=O)(=O)Nc1ccc(F)c(C(=O)c2c[nH]c3ncc(Cl)cc23)c1F
Summary of the method: as §1

barasertib = compound: CCN(CCCOc1ccc2c(Nc3cc(CC(=O)Nc4cccc(F)c4)[nH]n3)ncnc2c1)CCOP(=O)(O)O [barasertib]
Summary of the method: as §1

[10] = compound: CC[C@@H]1C(=O)N(C)c2cnc(Nc3ccc(C(=O)NC4CCN(C)CC4)cc3OC)nc2N1C1CCCC1
Summary of the method: as §1

volasertib = compound: CC[C@@H]1C(=O)N(C)c2cnc(Nc3ccc(C(=O)N[C@H]4CC[C@H](N5CCN(CC6CC6)CC5)CC4)cc3OC)nc2N1C(C)C [volasertib]
Summary of the method: as §1

[11] = compound: CCn1c(C(=O)N(C2CC2)C2CC2)cc2c3c(ncn3C)c(Nc3cc(C)n(C)n3)nc21
Summary of the method: as §1

[12] = compound: CCn1cc(-c2ccnc3[nH]c(-c4cccc(CN(C)C)c4)cc23)c(-c2ccc(NC(=O)N(C)C)cc2)n1
Summary of the method: as §1

[13] = compound: CN1CCC(CNc2ccc3ncc(-c4cccc(OC(F)(F)F)c4)n3n2)CC1
Summary of the method: as §1

saracatinib = compound: CN1CCN(CCOc2cc(OC3CCOCC3)c3c(Nc4c(Cl)ccc5c4OCO5)ncnc3c2)CC1 [saracatinib]
Summary of the method: as §1

sotrastaurin = compound: CN1CCN(c2nc(C3=C(c4c[nH]c5ccccc45)C(=O)NC3=O)c3ccccc3n2)CC1 [sotrastaurin]
Summary of the method: as §1

| Target | log2 fold change (ibrutinib) | log2 fold change [1] | log2 fold change (ralimetinib) | log2 fold change [2] | log2 fold change [3] | log2 fold change [4] | log2 fold change [5] | log2 fold change [6] | log2 fold change [7] | log2 fold change [8] | log2 fold change (vemurafenib) | log2 fold change [9] | log2 fold change (barasertib) | log2 fold change [10] | log2 fold change (volasertib) | log2 fold change [11] | log2 fold change [12] | log2 fold change [13] | log2 fold change (saracatinib) | log2 fold change (sotrastaurin) |
| --- | --- | --- | --- | --- | --- | --- | --- | --- | --- | --- | --- | --- | --- | --- | --- | --- | --- | --- | --- | --- |
| HAUS7 isoform 2 (UniProt Q99871) | inactive: 0.082 | inactive: 0.105 | inactive: -0.002 | inactive: -0.031 | inactive: 0.05 | inactive: -0.003 | inactive: 0.028 | inactive: -0.031 | inactive: 0.021 | inactive: -0.054 | inactive: -0.054 | inactive: 0.006 | inactive: 0.002 | inactive: 0.005 | inactive: -0.06 | inactive: -0.021 | inactive: 0.073 | inactive: -0.173 | inactive: 0.044 | inactive: -0.025 |
| GSTK1 (UniProt Q9Y2Q3) | inactive: 0.062 | inactive: 0.009 | inactive: 0 | inactive: -0.03 | inactive: -0.024 | inactive: 0.001 | inactive: 0.017 | inactive: -0.011 | inactive: 0.005 | inactive: -0.01 | inactive: 0.024 | inactive: -0.008 | inactive: 0.079 | inactive: 0.011 | inactive: 0.003 | inactive: -0.004 | inactive: -0.035 | inactive: -0.009 | inactive: 0.013 | inactive: -0.023 |
| HDDC2 (UniProt Q7Z4H3) | inactive: 0.068 | inactive: 0.016 | inactive: 0.012 | inactive: 0.019 | inactive: -0.032 | inactive: 0.017 | inactive: 0.017 | inactive: -0.008 | inactive: -0.025 | inactive: 0.026 | inactive: -0.058 | inactive: 0.017 | inactive: 0.01 | inactive: 0.033 | inactive: 0.01 | inactive: 0.008 | inactive: -0.009 | inactive: 0.01 | inactive: -0.023 | inactive: -0.019 |
| GSTP1 (UniProt P09211) | inactive: -0.012 | inactive: 0.042 | inactive: 0.011 | inactive: -0.003 | inactive: 0.021 | inactive: -0.011 | inactive: 0.036 | inactive: -0.025 | inactive: 0.003 | inactive: -0.003 | inactive: -0.007 | inactive: -0.017 | inactive: 0.008 | inactive: 0.003 | inactive: 0.034 | active: 0.324 | inactive: -0.059 | inactive: 0.021 | inactive: 0 | inactive: -0.002 |
| GSR (UniProt P00390) | inactive: 0.032 | inactive: -0.034 | inactive: 0.016 | inactive: 0.024 | inactive: -0.012 | inactive: -0.049 | inactive: -0.138 | inactive: 0.019 | inactive: -0.016 | inactive: 0.022 | inactive: 0.027 | inactive: 0.007 | inactive: -0.027 | inactive: -0.014 | inactive: 0.047 | inactive: 0.01 | inactive: -0.171 | inactive: 0.069 | inactive: 0.015 | inactive: -0.02 |
| GSKIP (UniProt Q9P0R6) | inactive: -0.007 | inactive: -0.075 | inactive: 0.032 | inactive: -0.048 | inactive: 0.109 | inactive: 0.111 | inactive: 0.031 | inactive: 0.297 | inactive: -0.01 | inactive: 0.034 | inactive: 0.067 | inactive: 0.071 | inactive: 0.207 | inactive: 0.024 | inactive: 0.04 | inactive: -0.012 | inactive: 0.014 | inactive: -0.111 | inactive: -0.065 | inactive: -0.158 |
| GTF3C1 (UniProt Q12789) | inactive: -0.036 | inactive: 0.014 | inactive: 0.045 | inactive: 0.009 | inactive: -0.019 | inactive: -0.009 | inactive: -0.025 | inactive: 0.034 | inactive: 0.04 | inactive: -0.005 | inactive: 0.019 | inactive: 0.014 | inactive: 0.055 | inactive: -0.02 | inactive: -0.032 | inactive: 0.034 | inactive: -0.131 | inactive: 0.077 | inactive: -0.013 | inactive: -0.003 |
| GTF2H4 (UniProt Q92759) | inactive: 0.039 | inactive: 0.003 | inactive: 0.058 | inactive: -0.006 | inactive: 0.021 | inactive: 0.054 | inactive: -0.014 | inactive: -0.015 | inactive: 0.052 | inactive: 0.037 | inactive: -0.047 | inactive: 0.007 | inactive: 0.039 | inactive: -0.099 | inactive: -0.046 | inactive: 0.028 | inactive: 0.063 | inactive: -0.075 | inactive: 0.029 | inactive: 0.034 |
| HBD (UniProt P02042) | inactive: 0.094 | inactive: -0.059 | inactive: -0.016 | inactive: -0.039 | inactive: -0.065 | inactive: 0.025 | inactive: -0.006 | inactive: 0.081 | inactive: 0.008 | inactive: 0.07 | inactive: 0.01 | inactive: -0.03 | inactive: 0.084 | inactive: -0.041 | inactive: 0.072 | inactive: -0.002 | inactive: 0.033 | inactive: -0.027 | inactive: 0.007 | inactive: -0.059 |
| GRPEL2 (UniProt Q8TAA5) | inactive: 0.001 | inactive: 0.039 | inactive: 0.033 | inactive: -0.004 | inactive: -0.055 | inactive: 0.06 | inactive: -0.007 | inactive: -0.016 | inactive: 0.023 | inactive: 0.072 | inactive: 0.012 | inactive: 0.026 | inactive: 0.007 | inactive: 0.002 | inactive: 0.009 | inactive: -0.004 | inactive: -0.223 | inactive: 0.053 | inactive: 0.024 | inactive: 0.015 |
| HAUS6 (UniProt Q7Z4H7) | inactive: 0.025 | inactive: -0.054 | inactive: 0.027 | inactive: -0.003 | inactive: -0.015 | inactive: 0.029 | inactive: 0.01 | inactive: -0.008 | inactive: 0.073 | inactive: 0.078 | inactive: 0.004 | inactive: 0.092 | inactive: 0.025 | inactive: 0.012 | inactive: -0.068 | inactive: 0.015 | inactive: -0.063 | inactive: 0.014 | inactive: 0.01 | inactive: 0.022 |
| HAGH (UniProt Q16775) | inactive: 0.049 | inactive: -0.013 | inactive: 0.005 | inactive: -0.03 | inactive: -0.051 | inactive: 0.024 | inactive: -0.048 | inactive: 0.039 | inactive: -0.038 | inactive: 0.019 | inactive: -0.001 | inactive: 0.008 | inactive: 0.003 | inactive: 0.013 | inactive: 0.027 | inactive: -0.023 | inactive: -0.042 | inactive: 0.097 | inactive: 0.058 | inactive: -0.004 |
| HACD3 (UniProt Q9P035) | inactive: 0.013 | inactive: -0.02 | inactive: 0 | inactive: -0.085 | inactive: 0 | inactive: -0.019 | inactive: 0 | inactive: 0.027 | inactive: -0.009 | inactive: 0.019 | inactive: 0 | inactive: 0.027 | inactive: 0.039 | inactive: 0.086 | inactive: 0.024 | inactive: -0.03 | inactive: -0.066 | inactive: 0.024 | inactive: 0.042 | inactive: 0.004 |
| H2AFY (UniProt O75367) | inactive: 0.051 | inactive: -0.056 | inactive: -0.025 | inactive: -0.043 | inactive: 0 | inactive: -0.003 | inactive: -0.148 | inactive: -0.053 | inactive: -0.033 | inactive: -0.001 | inactive: -0.042 | inactive: 0.013 | inactive: 0.094 | inactive: 0.131 | inactive: -0.036 | inactive: -0.001 | inactive: -0.059 | inactive: 0.056 | inactive: -0.077 | inactive: 0.104 |
| HEATR5B (UniProt Q9P2D3) | inactive: 0.082 | inactive: -0.003 | inactive: -0.076 | inactive: -0.135 | inactive: -0.031 | inactive: -0.004 | inactive: 0.018 | inactive: 0.033 | inactive: -0.039 | inactive: 0.002 | inactive: 0.03 | inactive: 0.001 | inactive: 0.112 | inactive: -0.012 | inactive: -0.037 | inactive: -0.093 | inactive: 0.047 | inactive: -0.037 | inactive: -0.019 | inactive: -0.017 |
| HAUS8 (UniProt Q9BT25) | inactive: 0.049 | inactive: -0.01 | inactive: 0.054 | inactive: 0.011 | inactive: -0.012 | inactive: -0.044 | inactive: -0.062 | inactive: 0.003 | inactive: 0.033 | inactive: 0.036 | inactive: -0.042 | inactive: 0.04 | inactive: -0.05 | inactive: -0.049 | inactive: 0.037 | inactive: -0.005 | inactive: -0.048 | inactive: 0.029 | inactive: 0.031 | inactive: -0.001 |

Exported as comma-separated lines: part of the list above
Target,log2 fold change (ibrutinib),log2 fold change [1],log2 fold change (ralimetinib),log2 fold change [2],log2 fold change [3],log2 fold change [4],log2 fold change [5],log2 fold change [6],log2 fold change [7],log2 fold change [8],log2 fold change (vemurafenib),log2 fold change [9],log2 fold change (barasertib),log2 fold change [10],log2 fold change (volasertib),log2 fold change [11],log2 fold change [12],log2 fold change [13],log2 fold change (saracatinib),log2 fold change (sotrastaurin)
GRPEL2 (UniProt Q8TAA5),inactive: 0.001,inactive: 0.039,inactive: 0.033,inactive: -0.004,inactive: -0.055,inactive: 0.06,inactive: -0.007,inactive: -0.016,inactive: 0.023,inactive: 0.072,inactive: 0.012,inactive: 0.026,inactive: 0.007,inactive: 0.002,inactive: 0.009,inactive: -0.004,inactive: -0.223,inactive: 0.053,inactive: 0.024,inactive: 0.015
HAUS6 (UniProt Q7Z4H7),inactive: 0.025,inactive: -0.054,inactive: 0.027,inactive: -0.003,inactive: -0.015,inactive: 0.029,inactive: 0.01,inactive: -0.008,inactive: 0.073,inactive: 0.078,inactive: 0.004,inactive: 0.092,inactive: 0.025,inactive: 0.012,inactive: -0.068,inactive: 0.015,inactive: -0.063,inactive: 0.014,inactive: 0.01,inactive: 0.022
